# The other results are listed elsewhere or left out.
# B1: Epa3to2 (Candida glabrata) (protein)
# chain: MGSSHHHHHHSSGLVPRGSHMKRELSSQNPFGYPIGCSPQDVAIIPGLTMELYSYPIVSGTPPNCYDASYVDPEYPRTGYLKRKMVGKSTGVTGNLNYKYSVEKACMVKYGNLPAGYNYNEPLTVSNFTMILYGYFKAQTTGLHTFFVNADDLLYINFGAGNAFDCCKREDSKTKLGEYVAYDIWHVDSSKNKVSLFLEKDLYYPIRMFFNNRDNNSSLDLSFSVNGATDQISDFSGYLYSVPDQPDTCPAHIGYDTTCR
# Tests used:
# Assay in all cases: glycan array binding signal (z-score within array); higher = stronger binding
# Details in all cases: glycan notation: IUPAC condensed, linker removed
# [1] = target: Gal(b1-4)GlcNAc(b1-3)Gal(b1-4)GlcNAc(b1-2)[Gal(b1-4)GlcNAc(b1-3)Gal(b1-4)GlcNAc(b1-6)]Man(a1-6)[Gal(b1-4)GlcNAc(b1-3)Gal(b1-4)GlcNAc(b1-2)Man(a1-3)]Man(b1-4)GlcNAc(b1-4)GlcNAc
# Summary of the method: (§1)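 Glycan array binding is given as a within-array Z-score, which can be read as non-binding when negative. The arrays, 3228 of them, came from the Consortium for Functional Glycomics database and were retained only where the protein sequence was available. Z-scores were averaged across arrays of the same protein sequence at different concentrations or buffers and across linkers.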
# [2] = target: Gal(b1-4)GlcNAc(b1-3)Gal(b1-4)GlcNAc(b1-2)[Gal(b1-4)GlcNAc(b1-3)Gal(b1-4)GlcNAc(b1-6)]Man(a1-6)[Gal(b1-4)GlcNAc(b1-3)Gal(b1-4)GlcNAc(b1-2)Man(a1-3)]Man(b1-4)GlcNAc(b1-4)[Fuc(a1-6)]GlcNAc
# Summary of the method: as §1
# [3] = target: Gal(b1-4)GlcNAc(b1-3)Gal(b1-4)GlcNAc(b1-3)Gal(b1-4)GlcNAc
# Summary of the method: as §1
# [4] = target: Gal(b1-4)GlcNAc(b1-3)Gal(b1-4)GlcNAc(b1-3)Gal(b1-4)GlcNAc(b1-2)Man(a1-3)[Gal(b1-4)GlcNAc(b1-3)Gal(b1-4)GlcNAc(b1-3)Gal(b1-4)GlcNAc(b1-2)Man(a1-6)]Man(b1-4)GlcNAc(b1-4)GlcNAc
# Summary of the method: as §1
# [5] = target: Gal(b1-4)GlcNAc(b1-3)Gal(b1-4)GlcNAc(b1-3)Gal(b1-4)GlcNAc(b1-2)Man(a1-3)[Gal(b1-4)GlcNAc(b1-3)Gal(b1-4)GlcNAc(b1-3)Gal(b1-4)GlcNAc(b1-2)Man(a1-6)]Man(b1-4)GlcNAc(b1-4)[Fuc(a1-6)]GlcNAc
# Summary of the method: as §1
# [6] = target: Gal(b1-4)GlcNAc(b1-3)Gal(b1-4)GlcNAc(b1-3)Gal(b1-4)GlcNAc(b1-2)[Gal(b1-4)GlcNAc(b1-3)Gal(b1-4)GlcNAc(b1-3)Gal(b1-4)GlcNAc(b1-6)]Man(a1-6)[Gal(b1-4)GlcNAc(b1-3)Gal(b1-4)GlcNAc(b1-3)Gal(b1-4)GlcNAc(b1-2)Man(a1-3)]Man(b1-4)GlcNAc(b1-4)[Fuc(a1-6)]GlcNAc
# Summary of the method: as §1
# [7] = target: Gal(b1-4)GlcNAc(b1-3)Gal(b1-4)GlcNAc(b1-3)Gal(b1-4)GlcNAc(b1-3)Gal(b1-4)GlcNAc(b1-2)Man(a1-3)[Gal(b1-4)GlcNAc(b1-3)Gal(b1-4)GlcNAc(b1-3)Gal(b1-4)GlcNAc(b1-3)Gal(b1-4)GlcNAc(b1-2)Man(a1-6)]Man(b1-4)GlcNAc(b1-4)GlcNAc
# Summary of the method: as §1
# [8] = target: Gal(b1-4)GlcNAc(b1-3)Gal(b1-4)GlcNAc(b1-3)Gal(b1-4)GlcNAc(b1-3)Gal(b1-4)GlcNAc(b1-2)Man(a1-3)[Gal(b1-4)GlcNAc(b1-3)Gal(b1-4)GlcNAc(b1-3)Gal(b1-4)GlcNAc(b1-3)Gal(b1-4)GlcNAc(b1-2)Man(a1-6)]Man(b1-4)GlcNAc(b1-4)[Fuc(a1-6)]GlcNAc
# Summary of the method: as §1
# [9] = target: Gal(b1-4)GlcNAc(b1-3)Gal(b1-4)GlcNAc(b1-3)Gal(b1-4)GlcNAc(b1-3)Gal(b1-4)GlcNAc(b1-2)[Gal(b1-4)GlcNAc(b1-3)Gal(b1-4)GlcNAc(b1-3)Gal(b1-4)GlcNAc(b1-3)Gal(b1-4)GlcNAc(b1-6)]Man(a1-6)[Gal(b1-4)GlcNAc(b1-3)Gal(b1-4)GlcNAc(b1-3)Gal(b1-4)GlcNAc(b1-3)Gal(b1-4)GlcNAc(b1-2)Man(a1-3)]Man(b1-4)GlcNAc(b1-4)[Fuc(a1-6)]GlcNAc
# Summary of the method: as §1
# [10] = target: Gal(b1-4)GlcNAc(b1-3)Gal(b1-4)GlcNAc(b1-3)Gal(b1-4)GlcNAc(b1-3)Gal(b1-4)GlcNAc(b1-3)Gal(b1-4)GlcNAc(b1-2)Man(a1-3)[Gal(b1-4)GlcNAc(b1-3)Gal(b1-4)GlcNAc(b1-3)Gal(b1-4)GlcNAc(b1-3)Gal(b1-4)GlcNAc(b1-3)Gal(b1-4)GlcNAc(b1-2)Man(a1-6)]Man(b1-4)GlcNAc(b1-4)GlcNAc
# Summary of the method: as §1
# [11] = target: Gal(b1-4)GlcNAc(b1-3)Gal(b1-4)GlcNAc(b1-3)Gal(b1-4)GlcNAc(b1-3)Gal(b1-4)GlcNAc(b1-3)Gal(b1-4)GlcNAc(b1-2)Man(a1-3)[Gal(b1-4)GlcNAc(b1-3)Gal(b1-4)GlcNAc(b1-3)Gal(b1-4)GlcNAc(b1-3)Gal(b1-4)GlcNAc(b1-3)Gal(b1-4)GlcNAc(b1-2)Man(a1-6)]Man(b1-4)GlcNAc(b1-4)[Fuc(a1-6)]GlcNAc
# Summary of the method: as §1
# [12] = target: Gal(b1-4)GlcNAc(b1-3)Gal(b1-4)GlcNAc(b1-3)Gal(b1-4)GlcNAc(b1-3)Gal(b1-4)GlcNAc(b1-3)Gal(b1-4)GlcNAc(b1-2)[Gal(b1-4)GlcNAc(b1-3)Gal(b1-4)GlcNAc(b1-3)Gal(b1-4)GlcNAc(b1-3)Gal(b1-4)GlcNAc(b1-3)Gal(b1-4)GlcNAc(b1-6)]Man(a1-6)[Gal(b1-4)GlcNAc(b1-3)Gal(b1-4)GlcNAc(b1-3)Gal(b1-4)GlcNAc(b1-3)Gal(b1-4)GlcNAc(b1-3)Gal(b1-4)GlcNAc(b1-2)Man(a1-3)]Man(b1-4)GlcNAc(b1-4)[Fuc(a1-6)]GlcNAc
# Summary of the method: as §1
# [13] = target: Gal(b1-4)GlcNAc(b1-3)Gal(b1-4)GlcNAc(b1-3)Gal(b1-4)GlcNAc(b1-3)Gal(b1-4)GlcNAc(b1-3)Gal(b1-4)GlcNAc(b1-3)Gal(b1-4)GlcNAc(b1-2)Man(a1-3)[Gal(b1-4)GlcNAc(b1-3)Gal(b1-4)GlcNAc(b1-3)Gal(b1-4)GlcNAc(b1-3)Gal(b1-4)GlcNAc(b1-3)Gal(b1-4)GlcNAc(b1-3)Gal(b1-4)GlcNAc(b1-2)Man(a1-6)]Man(b1-4)GlcNAc(b1-4)GlcNAc
# Summary of the method: as §1
# [14] = target: Gal(b1-4)GlcNAc(b1-3)Gal(b1-4)GlcNAc(b1-3)GalNAc
# Summary of the method: as §1
# [15] = target: Gal(b1-4)GlcNAc(b1-3)Gal(b1-4)GlcNAc(b1-3)[Gal(b1-4)GlcNAc(b1-3)Gal(b1-4)GlcNAc(b1-6)]GalNAc
# Summary of the method: as §1
# [16] = target: Gal(b1-4)GlcNAc(b1-3)Gal(b1-4)GlcNAc(b1-6)[Gal(b1-3)]GalNAc
# Summary of the method: as §1
# [17] = target: Gal(b1-4)GlcNAc(b1-3)Gal(b1-4)[Fuc(a1-3)]GlcNAc(b1-3)Gal(b1-4)[Fuc(a1-3)]GlcNAc
# Summary of the method: as §1
# [18] = target: Gal(b1-4)GlcNAc(b1-3)GalNAc
# Summary of the method: as §1
# [19] = target: Gal(b1-4)GlcNAc(b1-3)[Fuc(a1-3)GlcNAc(b1-6)]Gal(b1-4)Glc
# Summary of the method: as §1
# [20] = target: Gal(b1-4)GlcNAc(b1-3)[Gal(b1-4)GlcNAc(b1-6)]Gal(b1-4)GlcNAc
# Summary of the method: as §1
# [21] = target: Gal(b1-4)GlcNAc(b1-3)[GlcNAc(b1-6)]Gal(b1-4)GlcNAc
# Summary of the method: as §1
# [22] = target: Gal(b1-4)GlcNAc(b1-6)Gal(b1-4)GlcNAc
# Summary of the method: as §1
# [23] = target: Gal(b1-4)GlcNAc(b1-6)GalNAc
# Summary of the method: as §1
# [24] = target: Gal(b1-4)GlcNAc(b1-6)[Gal(b1-3)]GalNAc
# Summary of the method: as §1
# [25] = target: Gal(b1-4)GlcNAc(b1-6)[Gal(b1-4)GlcNAc(b1-3)]GalNAc
# Summary of the method: as §1
# [26] = target: Gal(b1-4)GlcNAc6P
# Summary of the method: as §1
# [27] = target: Gal(b1-6)Gal
# Summary of the method: as §1
# [28] = target: Gal3S(b1-3)GalNAc
# Summary of the method: as §1
# [29] = target: Gal3S(b1-3)GlcNAc
# Summary of the method: as §1
# [30] = target: Gal3S(b1-3)[Fuc(a1-4)]GlcNAc
# Summary of the method: as §1
# [31] = target: Gal3S(b1-4)Glc
# Summary of the method: as §1
# [32] = target: Gal3S(b1-4)Glc6S
# Summary of the method: as §1
# [33] = target: Gal3S(b1-4)GlcNAc
# Summary of the method: as §1
# [34] = target: Gal3S(b1-4)[Fuc(a1-3)]Glc6S
# Summary of the method: as §1
# [35] = target: Gal3S(b1-4)[Fuc(a1-3)]GlcNAc
# Summary of the method: as §1
# [36] = target: Gal3S(b1-4)[Fuc(a1-3)]GlcNAc6S
# Summary of the method: as §1
# [37] = target: Gal3S4S(b1-4)GlcNAc
# Summary of the method: as §1
binder,measurement,setting,value
B1,glycan array binding signal (z-score),[1],0.786
same,glycan array binding signal (z-score),[2],0.11
same,glycan array binding signal (z-score),[3],-0.689
same,glycan array binding signal (z-score),[4],1
same,glycan array binding signal (z-score),[5],0.162
same,glycan array binding signal (z-score),[6],-0.474
same,glycan array binding signal (z-score),[7],-0.691
same,glycan array binding signal (z-score),[8],-0.034
same,glycan array binding signal (z-score),[9],-0.799
same,glycan array binding signal (z-score),[10],0.722
same,glycan array binding signal (z-score),[11],-0.368
same,glycan array binding signal (z-score),[12],0.276
same,glycan array binding signal (z-score),[13],-0.835
same,glycan array binding signal (z-score),[14],1.26
same,glycan array binding signal (z-score),[15],1.05
same,glycan array binding signal (z-score),[16],0.306
same,glycan array binding signal (z-score),[17],-0.448
same,glycan array binding signal (z-score),[18],-1.11
same,glycan array binding signal (z-score),[19],1.65
same,glycan array binding signal (z-score),[20],1.17
same,glycan array binding signal (z-score),[21],-1.14
same,glycan array binding signal (z-score),[22],-0.268
same,glycan array binding signal (z-score),[23],0.214
same,glycan array binding signal (z-score),[24],0.588
same,glycan array binding signal (z-score),[25],0.129
same,glycan array binding signal (z-score),[26],-0.776
same,glycan array binding signal (z-score),[27],0.043
same,glycan array binding signal (z-score),[28],-0.582
same,glycan array binding signal (z-score),[29],0.408
same,glycan array binding signal (z-score),[30],0.077
same,glycan array binding signal (z-score),[31],0.557
same,glycan array binding signal (z-score),[32],0.185
same,glycan array binding signal (z-score),[33],-0.899
same,glycan array binding signal (z-score),[34],0.958
same,glycan array binding signal (z-score),[35],0.614
same,glycan array binding signal (z-score),[36],1.12
same,glycan array binding signal (z-score),[37],-0.354

# Reformatted with bars between the fields: part of the list above
binder | measurement | setting | value
B1 | glycan array binding signal (z-score) | [2] | 0.11
same | glycan array binding signal (z-score) | [3] | -0.689
same | glycan array binding signal (z-score) | [4] | 1
same | glycan array binding signal (z-score) | [5] | 0.162
same | glycan array binding signal (z-score) | [6] | -0.474
same | glycan array binding signal (z-score) | [7] | -0.691
same | glycan array binding signal (z-score) | [8] | -0.034
same | glycan array binding signal (z-score) | [9] | -0.799
same | glycan array binding signal (z-score) | [10] | 0.722

# — the supplement of paper PMC8728848
